Measured values: the supplement of paper PMC10735217
Structures can show the parent of a compound that is named as a salt. The list shows a part of the results. Repeats in this data set agree poorly, so a single value says little.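 The human kidney-derived cells carry a stably integrated construct of eight TEAD-binding elements driving luciferase, read by luminescence in a drug-repurposing library screen. A compound counts as a hit when its signal is more than five robust Z scores above the plate mean.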

Tested on: HEK293A TEAD-LUC reporter
Assay: TEAD-luciferase reporter activity (YAP activation), robust Z score vs plate; higher = stronger YAP/TEAD activation
Settings: 24 h

SMILES	TEAD-luciferase reporter activity (compound concentration: 200 nM)	TEAD-luciferase reporter activity (compound concentration: 2 uM)	TEAD-luciferase reporter activity (compound concentration: 10 uM)
Cc1c(N(C)CS(=O)(=O)[O-])c(=O)n(-c2ccccc2)n1C [Metamizole]	inactive: -0.164	inactive: 0.544	inactive: -1.73
C[n+]1c2n(c(=O)c3ccccc31)CCc1c-2[n-]c2ccccc12 [dehydroevodiamine HCl]	inactive: -1.27	inactive: 0.299	inactive: 0.265
CNC1C(O)C(OC2C(N)CC(N)C(OC3OC(CN)C(O)C(O)C3O)C2O)OCC1(C)O (configuration not stated)	inactive: -0.501	inactive: -0.294	inactive: 3.07
CCc1nc2ccc(Cl)cn2c1C(=O)NCc1ccc(N2CCC(c3ccc(OC(F)(F)F)cc3)CC2)cc1		inactive: 0.403	
CCc1nc2ccc(Cl)cn2c1C(=O)NCc1ccc(N2CCC(c3ccc(OC(F)(F)F)cc3)CC2)cc1 [Q203 from Novartis/NITD]	inactive: -0.381		inactive: 1.7
NCC(=O)CCC(=O)O [Aminolevulinic Acid]	inactive: -1.86		inactive: 0.529
NCC(=O)CCC(=O)O		inactive: -1.53	
CCN(C(=O)Cc1ccc(S(C)(=O)=O)cc1)C1CCN(CC[C@@H](c2cc(F)cc(F)c2)C2CCN(S(C)(=O)=O)CC2)CC1	inactive: -0.451	inactive: 1.52	inactive: 2.62
O=C(O)CCS[C@@H](CC(=O)O)c1ccccc1CCCCCCCCc1ccccc1	inactive: -1.49	inactive: -1.19	inactive: -0.236
COc1cccc(C(=O)COc2ccc(CC3SC(=O)NC3=O)cc2)c1 (configuration not stated)	inactive: 0.835	inactive: -0.0416	inactive: -0.426
O=C(c1c[nH]c2ncccc12)N1CCC(Cc2ccccc2)CC1	inactive: 4.33		inactive: 0.781
Cc1cc(N2CCOCC2)cc2[nH]c(-c3c(NC[C@@H](O)c4cccc(Cl)c4)cc[nH]c3=O)nc12	inactive: -1.1	inactive: -2.41	inactive: -1.48
CSC[C@H](NC(=O)[C@H](Cc1ccccc1)NC(=O)N1CCOCC1)C(=O)N[C@@H](CC1CCCCC1)[C@@H](O)C(=O)OC(C)C [Terlakiren]	inactive: 1.51	inactive: -0.896	inactive: 0.982
COC(=O)[C@H](CCSC)NC(=O)c1ccc(CNCc2c[nH]cn2)cc1-c1ccccc1C	inactive: -0.844	inactive: 1.62	active: 6.19
CC[C@H](CC[C@@H](C)[C@H]1CC[C@H]2[C@@H]3CC=C4C[C@@H](O[C@@H]5O[C@H](CO)[C@@H](O)[C@H](O)[C@H]5O)CC[C@]4(C)[C@H]3CC[C@]12C)C(C)C [Beta-sitosterol glucoside]	inactive: -0.938	inactive: -1.11	inactive: -1.57
CCCCCCCCCCCCCCCCCCNC(=O)OCC(COP(=O)(O)OCC[n+]1ccsc1)OC (configuration not stated)	inactive: -0.617	inactive: -1.81	inactive: -0.372
Cc1cccc(C)c1NCC(C)N(C)C (configuration not stated)	inactive: -1.91	inactive: 0.322	inactive: -1.38
CCNc1ncnc2c1nc(C(C)C)n2Cc1ccc(OC)c(OC2CCCC2)c1	inactive: 2.3	inactive: 1.68	inactive: 0.727
C=C[C@]1(C)C[C@@H](OC(=O)CO)[C@]2(C)C(C)CCC3(CCC(=O)C32)[C@@H](C)[C@@H]1O (some centres not stated)	inactive: -0.541	inactive: -1.53	inactive: -1.64
O=C(NCc1ccc(Oc2ccccc2)cc1)c1nc(-c2cc(Br)c(O)c(Br)c2)no1	inactive: -1.13	inactive: 3.42	inactive: -0.0253
NC(=O)C(c1ccccc1)(c1ccccc1)[C@@H]1CCN(CCc2ccc3c(c2)CCO3)C1 [darifenacin hydrobromide]	inactive: -0.712	inactive: -0.318	inactive: -1.35
O=C1c2cccnc2OC[C@@H]2CCCN12	inactive: -0.893	inactive: -0.132	inactive: 0.968
CS(=O)(=O)N[C@H](Cc1ccccc1)C(=O)N1CCC[C@H]1C(=O)NCC1CCN(C(=N)N)CC1	inactive: -0.0506	inactive: -0.494	inactive: 0.348
Cc1oc(-c2ccc(C(F)(F)F)cc2)nc1COc1ccc(S(=O)(=O)N2c3ccccc3C[C@@H]2C(=O)O)cc1	inactive: 1.74	inactive: -1.21	inactive: 0.975
CCCC(=O)O[C@]1(C(=O)COC(C)=O)CC[C@H]2[C@@H]3C[C@H](C)C4=CC(=O)CC[C@]4(C)[C@H]3[C@@H](O)C[C@@]21C [Amebucort]	inactive: -0.509	inactive: 0.787	inactive: 0.0315
COc1cc2ncnc(-n3nc(-c4ccccn4)nc3N)c2cc1OC	inactive: 1.1	inactive: -0.512	inactive: 3.37
O=C(c1ccccc1)N1CCC(N2CCCCCC2=O)CC1	inactive: -1.43		inactive: 2.79
Cn1c(=O)c2c(ncn2CC(=O)O)n(C)c1=O	inactive: 0.356	inactive: 0.713	inactive: -1.39

SMILES	TEAD-luciferase reporter activity (compound concentration: 200 nM)	TEAD-luciferase reporter activity (compound concentration: 2 uM)	TEAD-luciferase reporter activity (compound concentration: 10 uM)
O=C1c2ccccc2C(=O)C1c1ccc(C(F)(F)F)cc1	inactive: -0.178	inactive: -0.27	inactive: 1.92
COc1ccc(C(=O)N2CCC(N3CCCCCC3=O)CC2)cc1	inactive: -1.21		inactive: -0.712
OCCN1CCN(C2CC(c3ccc(F)cc3)c3ccc(C(F)(F)F)cc32)CC1 (configuration not stated) [Tefludazine]	inactive: 0.277	inactive: -0.935	inactive: 1.12
CC(C)(C)C(=O)OCC(=O)C1CCC2C3CCC4=CC(=O)CCC4(C)C3CCC12C (configuration not stated)	inactive: 0.0934	inactive: 0.383	inactive: 0.512
CC(CCC(=O)O)(c1ccc(OCc2ccc3ccccc3n2)cc1)c1ccc(OCc2ccc3ccccc3n2)cc1	inactive: -0.585	inactive: -1.17	inactive: 0.74
CN1CCN(CC/C=C2/c3ccccc3Sc3ccc(S(=O)(=O)N(C)C)cc32)CC1 [Tiotixene]	inactive: 0.148	inactive: -1.31	active: 5.6
CC(C)NCC(O)COc1cccc2c1C=CC2 (configuration not stated) [Indenolol]	inactive: -0.188	inactive: -0.474	inactive: 1.7
CCC(C(=O)OCCOCCN(CC)CC)c1ccccc1 (configuration not stated) [butamirate citrate]	inactive: -0.263	inactive: -0.478	inactive: 0.679
COc1cc(/C=C/C(=O)OCCCCO[N+](=O)[O-])ccc1OC(=O)C(C)c1ccc(-c2ccccc2)c(F)c1 (configuration not stated)	inactive: 2.49	inactive: -1.7	inactive: 0.168
Cc1ccc(NC(=O)C(C)NC(=O)C(C)(C)C)c(C)c1 (configuration not stated)	inactive: -0.96	inactive: -1.09	inactive: -0.0891
CC1(C)CNc2cc(NC(=O)c3cccnc3NCc3ccncc3)ccc21 [motesanib diphosphate]	inactive: 3.87	inactive: -0.922	inactive: -0.146
COc1ccc(OC2CN(Cc3ccc(C#N)cc3)C2)cc1	inactive: -0.0623		inactive: 3.51
C/C(=C\c1ccc(C(=O)O)cc1)c1ccc2c(c1)C(C)(C)CCC2(C)C	inactive: -0.752	inactive: -0.772	inactive: -1.37
COC(=O)[C@H](C/C=C/c1ccc(N(C)c2ncccn2)cc1)NC(=O)c1c(Cl)cccc1Cl	inactive: -1.3	inactive: -0.61	inactive: -0.459
COc1cc(-n2cnc3cc(-c4ccc(Cl)cc4)sc3c2=O)ccc1OCC(O)C1CC1 (configuration not stated)	inactive: -0.608	inactive: -1.33	inactive: 1.77
CC(C)(C)OC(=O)N1CCC(N2C(=O)NC3CNCCC32)CC1 (configuration not stated)	inactive: -1.2	inactive: -0.49	inactive: 0.494
CN(C)CCOC(=O)COc1ccc(Cl)cc1	inactive: -2.14	inactive: -0.683	inactive: -0.522
C[C@@H](N)c1ccc(C(=O)Nc2ccnc3[nH]ccc23)cc1	inactive: 0.143	inactive: 1.64	active: 5.71
CCCOc1ccc(-c2nc(-c3ccc4oc(C(N)(CO)CO)cc4c3)no2)cc1Cl	inactive: -1.35	inactive: 0.0511	inactive: 4.45
CN1CCN(C2=Nc3ccccc3Sc3nccn32)CC1 [pentiapine]	inactive: -0.639	inactive: -1.02	inactive: -1.89
CNCC(=O)N[C@H](C(=O)N[C@@H](Cc1ccccc1)[C@H](O)CN(CCC(C)C)C(=O)NC(C)(C)C)C(C)(C)C [Droxinavir]	inactive: 4.44	inactive: -0.306	inactive: 1.02
CC[C@H](NC(=O)c1c(NS(C)(=O)=O)c(-c2ccccc2)nc2ccccc12)c1ccccc1	inactive: -0.463	inactive: -1.01	inactive: 0.417
N#CC[C@H](C1CCCC1)n1cc(-c2ncnc3[nH]ccc23)cn1 [ruxolitinib]		inactive: 1.24	
N#CC[C@H](C1CCCC1)n1cc(-c2ncnc3[nH]ccc23)cn1	inactive: -0.668		inactive: -0.629
Cc1ccccc1CN1CCN(Cc2c[nH]c(-c3ccccc3)n2)CC1	inactive: 0.496	inactive: 0.138	inactive: 0.893
Cc1cc(C2CC3CCC2(C)C3(C)C)ccc1O (configuration not stated)	inactive: -0.641	inactive: -1.68	inactive: 0.128
CCCCCCCC[C@@H]1NC(=O)[C@@H](CCC(=O)O)NC(=O)[C@H]2CCCN2C(=O)[C@H]([C@@H](C)O)NC(=O)[C@H](CCCCN)NC(=O)[C@H](CCC(N)=O)NC(=O)[C@@H]2CCCN2C(=O)[C@@H]2CCCN2C(=O)[C@H]([C@@H](C)CC)NC(=O)[C@H](CO)NC(=O)[C@H](C)NC(=O)[C@H]([C@@H](C)O)NC(=O)[C@H](CCC(=O)O)NC1=O [analog of POL-6014]	inactive: -1.37	inactive: -0.583	inactive: -0.74

Record cards, as listed above.
CC(CCC(=O)O)(c1ccc(OCc2ccc3ccccc3n2)cc1)c1ccc(OCc2ccc3ccccc3n2)cc1 in the list: TEAD-luciferase reporter activity (compound concentration: 200 nM): inactive: -0.585; TEAD-luciferase reporter activity (compound concentration: 2 uM): inactive: -1.17; TEAD-luciferase reporter activity (compound concentration: 10 uM): inactive: 0.74
N#CC[C@H](C1CCCC1)n1cc(-c2ncnc3[nH]ccc23)cn1 [ruxolitinib] in the list: TEAD-luciferase reporter activity (compound concentration: 2 uM): inactive: 1.24
